For at least one compound, name, drawing or mass did not settle the structure.
How the values were obtained:
Assay type in all cases: cell-based
[1] = test system: MCP1 in osteoarthritic human synoviocytes; assay: IL-1β-induced MCP1 in osteoarthritic-synoviocytes; settings: IL-1β 0.5 ng/mL; 0.5, 0.8 or 1 millimolar DA; 0.1-100 nanomolar Dex
[2] = test system: PGE2 release from osteoarthritic human synoviocytes; assay: IL-1β-induced PGE2 and PGD2 release from osteoarthritic-synoviocytes
[3] = test system: MMP13 expression in human osteoarthritic chondrocytes; assay: MMP13 relative expression in high and low passage osteoarthritic chondrocytes; settings: high passage, dedifferentiated osteoarthritic chondrocytes, 14 days
[4] = test system: arachidonic acid (AA) in primary human synoviocytes; assay: Early arachidonic acid in IL-1β-stimulated primary human osteoarthritic synoviocytes, 3 h; settings: IL-1β 1 ng/mL
Description: Early concentrations of arachidonic acid (AA) present in primary human synoviocytes from patients with osteoarthritis that were stimulated with 1 ng/mL final concentration interleukin 1-beta (β) for 3 hours in the presence of varying concentrations of Dex and DA in view of controls are depicted in FIG. 32. The concentrations of AA in FIG. 32 were normalized to total protein content from the cell lysates using bicinchoninic acid (BCA).

## C[C@@H]1C[C@H]2[C@@H]3CCC4=CC(=O)C=C[C@]4(C)[C@@]3(F)[C@@H](O)C[C@]2(C)[C@@]1(O)C(=O)CO [Dex, dexamethasone, reference compound]
[1]
  effect on MCP1: reduction in MCP1 in a dose dependent manner
[2]
  effect of adding 100 picomolar Dex to DA on PGE2 and PGD2 release: additive effect
[3]
  MMP13 transcription: reduced MMP13 transcription
[4]
  AA concentration normalized to total protein: lower than that of the control with IL-1β

Reference: patent publication US20250288599A1, “PHARMACEUTICAL COMPOSITIONS AND METHODS FOR TREATING OSTEOARTHRITIS” (INSIGNIA PHARMACEUTICALS, LLC, priority 2024, published 2025)
